Consider 20 compounds from PubChem BioAssay AID330 (DTP/NCI, 2004).

The list is a part of this screen's results and no random one: it is rich in T/C values a quarter to a half above the control, in often repeated tests (any T/C) and in doses without a T/C. Further doses and runs are listed elsewhere. T/C gives the treated animals as a percentage of the vehicle group. Some entries give survivors of the animals treated and no T/C: the source holds a T/C of zero for them, seemingly a mark for toxic or unscored doses. Some doses without a T/C left all or most animals alive at the check, yet need not have been tolerated: survival well below the control is almost never listed, so the zero probably covers shortened survival too. Counts of survivors are from the toxicity check (mostly the fifth day) where no day follows; animals may have died later. Schedules are NCI's codes, taken here to give the interval after Q, in days (D) or hours (H), and the number of doses after X. Some doses were run more than once; the values are given in rising order. Where survival is the endpoint, this PubChem deposit counts one and a half times the control or more as active, and values a quarter to a half above the control carry no call in these data; other NCI protocols may use other cut-offs.

This assay deals with P388 leukemia ip, CD2F1 mice, survival T/C. Nature of the assay: NCI In Vivo Anticancer Drug Screen. Data for tumor model P388 Leukemia (intraperitoneal) in CD2F1 (CDF1) mice. Conditions: T/C endpoint: median survival time, higher T/C = longer survival.
Setting [1] is: dose: 200.0 mg/kg/injection, schedule: Q01DX005 (ip), vehicle: saline with Tween-80.
Where [2] appears, read: dose: 120.0 mg/kg/injection, schedule: Q01DX005 (ip), vehicle: saline with Tween-80.
The mark [3] stands for this setting: dose: 200.0 mg/kg/injection, schedule: Q01DX005 (ip), vehicle: Klucel (hydroxypropylcellulose) (HPC).

On to `Cc1ccc(NC(=S)NNC(=O)CN2C(=O)c3ccccc3C2=O)cc1`, for which the survivor count (dose: 100.0 mg/kg/injection, schedule: Q01DX001 (ip), vehicle: Klucel (hydroxypropylcellulose) (HPC)) was 6 of 6 and the survivor count (dose: 200.0 mg/kg/injection, schedule: Q01DX001 (ip), vehicle: Klucel (hydroxypropylcellulose) (HPC)) is 5 of 6.
Take `CCC(C)C(NC(=O)C(Cc1cnc[nH]1)N(C(=O)OCc1ccccc1)C(=O)OCc1ccccc1)C(=O)OCc1ccccc1` (stereo not drawn): the survivor count under setting [1] is 3 of 5.
For the compound `COc1cc2ccc3c(c2cc1OC)N(C)C(OC)c1cc2c(cc1-3)OCO2` (stereo not drawn), the T/C (dose: 20.0 mg/kg/injection, schedule: Q01DX009 (ip), vehicle: Klucel (hydroxypropylcellulose) (HPC)) was 142 % of control. Moreover, the survivor count (dose: 160.0 mg/kg/injection, schedule: Q01DX009 (ip), vehicle: Klucel (hydroxypropylcellulose) (HPC)) was 6 of 6.
On to `COc1cc2c(c(OC)c1OC)-c1ccc(OC)c(=O)cc1[C@@H](NC(=O)C(F)(F)F)CC2`, for which the T/C runs as follows: (dose: 0.39 mg/kg/injection, schedule: Q01DX009 (ip), vehicle: Klucel (hydroxypropylcellulose) (HPC)) 125 % of control; (dose: 97.5 micrograms/kg/injection, schedule: Q01DX009 (ip), vehicle: Klucel (hydroxypropylcellulose) (HPC)) 129 % of control; (dose: 195.0 micrograms/kg/injection, schedule: Q01DX009 (ip), vehicle: Klucel (hydroxypropylcellulose) (HPC)) 130 and 141 % of control; (dose: 390.0 micrograms/kg/injection, schedule: Q01DX009 (ip), vehicle: Klucel (hydroxypropylcellulose) (HPC)) 133 and 142 % of control. For the same compound, the survivor count is 1 of 6 (dose: 0.78 mg/kg/injection, schedule: Q01DX009 (ip), vehicle: Klucel (hydroxypropylcellulose) (HPC)); 1 of 6 and 3 of 6 (dose: 780.0 micrograms/kg/injection, schedule: Q01DX009 (ip), vehicle: Klucel (hydroxypropylcellulose) (HPC)); 0 of 6 and 1 of 6 (dose: 1560.0 micrograms/kg/injection, schedule: Q01DX009 (ip), vehicle: Klucel (hydroxypropylcellulose) (HPC)).
For the compound `[O-]c1c(Cl)c(Cl)c(O[P+](c2ccccc2)(c2ccccc2)c2ccccc2)c(Cl)c1Cl`, the survivor count is 5 of 6 (dose: 50.0 mg/kg/injection, schedule: Q01DX009 (ip), vehicle: saline) and 2 of 6 (dose: 100.0 mg/kg/injection, schedule: Q01DX009 (ip), vehicle: saline).
In the case of `CC(C)(C)[NH2+][B-](F)(F)F`, the survivor count is listed as 0 of 6 (dose: 25.0 mg/kg/injection, schedule: Q01DX005 (ip), vehicle: saline); 0 of 6 (dose: 50.0 mg/kg/injection, schedule: Q01DX005 (ip), vehicle: saline); 0 of 6 (dose: 100.0 mg/kg/injection, schedule: Q01DX005 (ip), vehicle: saline); 0 of 6 (dose: 200.0 mg/kg/injection, schedule: Q01DX005 (ip), vehicle: saline).
Take `c1ccc(-c2ncc[nH]2)cc1`: under “dose: 400.0 mg/kg/injection, schedule: Q01DX001 (ip), vehicle: saline with Tween-80”, the survivor count is 2 of 6.
As to `CCC[CH2][Sn]([CH2]CCC)([CH2]CCC)[CH2]CCN(C)C`, the survivor count (dose: 200.0 mg/kg/injection, schedule: Q01DX009 (ip), vehicle: saline) is recorded as 0 of 6.
Regarding `O=C1C(N2CC2)=C(N2CC2)C(=O)c2ncncc21`, the T/C (dose: 10.0 mg/kg/injection, schedule: Q01DX005 (ip), vehicle: saline) is 125 % of control.
`NC(=O)N/N=C(/Cc1nc2ccccc2nc1C/C(=N/NC(N)=O)c1cccc2ccccc12)c1cccc2ccccc12`: the survivor count under setting [2] is 6 of 6.
For `C[n+]1cc2cc3c(cc2c2ccccc21)OCO3`, the T/C reads like this: (dose: 3.13 mg/kg/injection, schedule: Q01DX009 (ip), vehicle: water) 126 % of control; (dose: 6.25 mg/kg/injection, schedule: Q01DX009 (ip), vehicle: water) 129 % of control; (dose: 12.5 mg/kg/injection, schedule: Q01DX009 (ip), vehicle: water) 131 and 135 % of control; (dose: 18.8 mg/kg/injection, schedule: Q01DX009 (ip), vehicle: water) 144 % of control. The survivor count is listed as 6 of 6 (dose: 50.0 mg/kg/injection, schedule: Q01DX009 (ip), vehicle: water); 0 of 6 (dose: 100.0 mg/kg/injection, schedule: Q01DX009 (ip), vehicle: water); 0 of 6 (dose: 200.0 mg/kg/injection, schedule: Q01DX009 (ip), vehicle: water).
As for `CN(C)CCOC(=O)Nc1ccc(Cc2ccc(NC(=O)OCCN(C)C)cc2)cc1`, the survivor count runs as follows: under setting [2], 3 of 5; (dose: 240.0 mg/kg/injection, schedule: Q01DX005 (ip), vehicle: saline with Tween-80) 0 of 5.
On to `[N-]=[N+]=NC1(N=[N+]=[N-])C(=O)Nc2ccc(Cl)cc2C1=O` (stereo not drawn), for which the survivor count under setting [3] is given as 2 of 6.
In the case of `Cn1c(-c2ccc(/C=N/N=C(\N)N/N=C/c3ccc(-c4c[n+]5ccsc5n4C)cc3)cc2)c[n+]2ccsc12`, the survivor count is on record as 0 of 6 (dose: 0.5 mg/kg/injection, schedule: Q01DX005 (ip), vehicle: saline); 0 of 6 (dose: 1.0 mg/kg/injection, schedule: Q01DX005 (ip), vehicle: saline); 0 of 6 (dose: 2.0 mg/kg/injection, schedule: Q01DX005 (ip), vehicle: saline); 0 of 6 (dose: 4.0 mg/kg/injection, schedule: Q01DX005 (ip), vehicle: saline); 0 of 6 (dose: 7.5 mg/kg/injection, schedule: Q01DX005 (ip), vehicle: saline); 0 of 6 (dose: 15.0 mg/kg/injection, schedule: Q01DX005 (ip), vehicle: saline). The survivor count reads like this: (dose: 30.0 mg/kg/injection, schedule: Q01DX005 (ip), vehicle: saline) 0 of 6; (dose: 60.0 mg/kg/injection, schedule: Q01DX005 (ip), vehicle: saline) 0 of 6; (dose: 120.0 mg/kg/injection, schedule: Q01DX005 (ip), vehicle: saline) 0 of 6; (dose: 240.0 mg/kg/injection, schedule: Q01DX005 (ip), vehicle: saline) 0 of 6.
For `CC[N+](CC)(CC)CCCNC1=CC(=O)C(NCCC[N+](CC)(CC)CC)=CC1=O`, the survivor count by setting is: (dose: 1.56 mg/kg/injection, schedule: Q04DX003 (ip), vehicle: saline) 1 of 6; (dose: 3.12 mg/kg/injection, schedule: Q04DX003 (ip), vehicle: saline) 1 of 6; (dose: 6.25 mg/kg/injection, schedule: Q04DX003 (ip), vehicle: saline) 0 of 6; (dose: 12.5 mg/kg/injection, schedule: Q04DX003 (ip), vehicle: saline) 0 of 6; (dose: 25.0 mg/kg/injection, schedule: Q04DX003 (ip), vehicle: saline) 0 of 6.
For the compound `CC(NNC(=S)N1CC2CCC(CC2)C1)c1nccc2ccccc12` (stereo not drawn), the survivor count (dose: 50.0 mg/kg/injection, schedule: Q01DX005 (ip), vehicle: saline with Tween-80) is on record as 2 of 5; the survivor count (dose: 100.0 mg/kg/injection, schedule: Q01DX005 (ip), vehicle: saline with Tween-80) is recorded as 2 of 5; the survivor count under setting [1] was 1 of 6.
With `O=C(O)c1ccccc1C(=O)O.[Cu+2].[NH-]CC[NH-]`, the survivor count (dose: 25.0 mg/kg/injection, schedule: Q04DX002 (ip), vehicle: saline with Tween-80) is 0 of 6; the survivor count (dose: 50.0 mg/kg/injection, schedule: Q04DX002 (ip), vehicle: saline with Tween-80) is on record as 0 of 6; the survivor count (dose: 100.0 mg/kg/injection, schedule: Q04DX002 (ip), vehicle: saline with Tween-80) was 0 of 6.
`NCC(CC(=O)O)c1ccc(Cl)cc1` (stereo not drawn): the survivor count under setting [3] is 0 of 6.
For the compound `Cc1ccc(-n2c(C)nc3c(c(C)c(C)n3-c3ccccc3)c2=N)cc1`, the survivor count is listed as 0 of 6 (dose: 50.0 mg/kg/injection, schedule: Q01DX005 (ip), vehicle: Klucel (hydroxypropylcellulose) (HPC)); 0 of 6 (dose: 100.0 mg/kg/injection, schedule: Q01DX005 (ip), vehicle: Klucel (hydroxypropylcellulose) (HPC)); 0 of 6 under setting [3].
On to `ClC1=C(Cl)C(Cl)=C(Cl)C1=C/C=C/c1ccccc1`, for which the survivor count (dose: 200.0 mg/kg/injection, schedule: Q01DX009 (ip), vehicle: saline with Tween-80) is listed as 5 of 6.
